# Test results from publication PMC9583544.
# B1: HYOU1 (protein, UniProt Q9Y4L1 33-999)
# chain: LAVMSVDLGSESMKVAIVKPGVPMEIVLNKESRRKTPVIVTLKENERFFGDSAASMAIKNPKATLRYFQHLLGKQADNPHVALYQARFPEHELTFDPQRQTVHFQISSQLQFSPEEVLGMVLNYSRSLAEDFAEQPIKDAVITVPVFFNQAERRAVLQAARMAGLKVLQLINDNTATALSYGVFRRKDINTTAQNIMFYDMGSGSTVCTIVTYQMVKTKEAGMQPQLQIRGVGFDRTLGGLEMELRLRERLAGLFNEQRKGQRAKDVRENPRAMAKLLREANRLKTVLSANADHMAQIEGLMDDVDFKAKVTRVEFEELCADLFERVPGPVQQALQSAEMSLDEIEQVILVGGATRVPRVQEVLLKAVGKEELGKNINADEAAAMGAVYQAAALSKAFKVKPFVVRDAVVYPILVEFTREVEEEPGIHSLKHNKRVLFSRMGPYPQRKVITFNRYSHDFNFHINYGDLGFLGPEDLRVFGSQNLTTVKLKGVGDSFKKYPDYESKGIKAHFNLDESGVLSLDRVESVFETLVEDSAEEESTLTKLGNTISSLFGGGTTPDAKENGTDTVQEEEESPAEGSKDEPGEQVELKEEAEAPVEDGSQPPPPEPKGDATPEGEKATEKENGDKSEAQKPSEKAEAGPEGVAPAPEGEKKQKPARKRRMVEEIGVELVVLDLPDLPEDKLAQSVQKLQDLTLRDLEKQEREKAANSLEAFIFETQDKLYQPEYQEVSTEEQREEISGKLSAASTWLEDEGVGATTVMLKEKLAELRKLCQGLFFRVEERKKWPERLSALDNLLNHSSMFLKGARLIPEMDQIFTEVEMTTLEKVINETWAWKNATLAEQAKLPATEKPVLLSKDIEAKMMALDREVQYLLNKAKFTKPRPRPKDKNGTRAEPPLNASASDQGEKVIPPAGQTEDAEPISEPEKVETGSEPGDTEPLELGGPGAEPEQKEQSTGQKRPLKNDEL
# Molecular target: interferon stimulated gene (ISG) 15 (human (endogenous in IPSC-derived neurons)) (UniProt P05161)
# Experiment: affinity purification with mass spectrometry; lysates of human IPSC-derived neurons (non-targeted control against ISG15 knockout) treated with 100 ng/mL IFNγ for 24 h; NDG lysis buffer (1% Nonidet P-40, 0.5% deoxycholate, 10% glycerol, 20 mM Tris, 137 mM NaCl, pH 8.0); immunoprecipitated with biotinylated anti-ISG15 (clone F9) on streptavidin magnetic nanoparticles; eluted in 5% glacial acetic acid; LC-MS; hits >5 counts and >5-fold enriched over ISG15 KO precipitates
binder,measurement,value
B1,binding,binds

# Results are given in words; binding and its absence hold for the method and conditions named. Binding seen in cells or lysates may run through a third protein. A yes stands for co-enrichment or nearness to the bait. Other partners may have been found.
